Results are given in words; binding and its absence hold for the method and conditions named. Binding seen in cells or lysates may run through a third protein. These calls come from enrichment with a bait or labelling near it, and not all partners need be listed.
Legend:
Assay in all cases: affinity purification with mass spectrometry
[1] = target: T1, AP3B (Arabidopsis thaliana) (UniProt Q9M2T1)
T1 sequence: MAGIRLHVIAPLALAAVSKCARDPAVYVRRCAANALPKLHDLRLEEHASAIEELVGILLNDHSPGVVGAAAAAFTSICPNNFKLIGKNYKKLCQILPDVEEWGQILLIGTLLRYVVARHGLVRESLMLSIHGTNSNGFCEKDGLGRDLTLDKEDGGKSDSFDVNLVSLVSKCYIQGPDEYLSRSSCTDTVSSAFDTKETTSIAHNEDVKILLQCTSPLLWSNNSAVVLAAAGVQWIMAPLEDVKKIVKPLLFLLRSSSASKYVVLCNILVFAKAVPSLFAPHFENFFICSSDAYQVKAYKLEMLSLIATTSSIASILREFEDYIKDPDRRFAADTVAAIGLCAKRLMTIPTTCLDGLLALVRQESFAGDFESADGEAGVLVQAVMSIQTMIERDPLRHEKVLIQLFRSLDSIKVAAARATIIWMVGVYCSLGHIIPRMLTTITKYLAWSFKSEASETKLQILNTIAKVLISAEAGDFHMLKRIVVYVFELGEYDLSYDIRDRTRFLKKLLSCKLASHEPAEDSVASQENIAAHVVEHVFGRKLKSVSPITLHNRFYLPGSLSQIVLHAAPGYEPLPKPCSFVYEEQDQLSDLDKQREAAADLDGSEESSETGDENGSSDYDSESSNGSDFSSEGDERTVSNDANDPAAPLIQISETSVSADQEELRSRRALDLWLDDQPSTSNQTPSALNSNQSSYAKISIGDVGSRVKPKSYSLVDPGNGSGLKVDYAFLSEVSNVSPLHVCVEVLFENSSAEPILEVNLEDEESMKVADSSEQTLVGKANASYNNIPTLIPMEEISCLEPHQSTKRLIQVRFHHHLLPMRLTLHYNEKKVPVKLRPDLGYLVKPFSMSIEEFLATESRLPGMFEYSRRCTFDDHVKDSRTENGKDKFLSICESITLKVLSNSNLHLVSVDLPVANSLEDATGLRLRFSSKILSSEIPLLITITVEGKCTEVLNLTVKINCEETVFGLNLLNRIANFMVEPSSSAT

By UniProt entry, the sequences of proteins in these tests, tags left out. Where a name states a change or a piece, a line headed by the entry shows the natural chain unless it says otherwise.
UniProt Q8S9J8: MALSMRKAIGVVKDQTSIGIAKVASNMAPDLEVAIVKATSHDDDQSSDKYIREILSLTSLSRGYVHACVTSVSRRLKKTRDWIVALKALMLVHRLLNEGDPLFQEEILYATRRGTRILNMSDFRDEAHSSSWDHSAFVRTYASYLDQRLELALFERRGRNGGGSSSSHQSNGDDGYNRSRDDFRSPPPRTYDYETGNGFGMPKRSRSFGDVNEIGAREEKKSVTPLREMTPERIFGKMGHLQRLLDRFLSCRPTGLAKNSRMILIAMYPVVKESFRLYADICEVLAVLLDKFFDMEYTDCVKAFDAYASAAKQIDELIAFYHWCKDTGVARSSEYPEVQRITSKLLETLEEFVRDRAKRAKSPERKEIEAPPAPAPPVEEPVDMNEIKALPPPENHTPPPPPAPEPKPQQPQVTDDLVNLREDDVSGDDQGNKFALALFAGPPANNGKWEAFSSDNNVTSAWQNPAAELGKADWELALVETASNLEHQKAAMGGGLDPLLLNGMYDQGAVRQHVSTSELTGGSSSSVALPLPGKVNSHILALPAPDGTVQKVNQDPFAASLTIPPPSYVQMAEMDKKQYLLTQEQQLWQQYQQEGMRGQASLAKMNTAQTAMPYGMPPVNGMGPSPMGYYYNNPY

[2] = target: AP5B (Arabidopsis thaliana)
[3] = target: CAP1 (Arabidopsis thaliana) (UniProt Q8S9J8)
[4] = target: T2, SH3P1 (Arabidopsis thaliana) (UniProt Q9C865)
T2 sequence: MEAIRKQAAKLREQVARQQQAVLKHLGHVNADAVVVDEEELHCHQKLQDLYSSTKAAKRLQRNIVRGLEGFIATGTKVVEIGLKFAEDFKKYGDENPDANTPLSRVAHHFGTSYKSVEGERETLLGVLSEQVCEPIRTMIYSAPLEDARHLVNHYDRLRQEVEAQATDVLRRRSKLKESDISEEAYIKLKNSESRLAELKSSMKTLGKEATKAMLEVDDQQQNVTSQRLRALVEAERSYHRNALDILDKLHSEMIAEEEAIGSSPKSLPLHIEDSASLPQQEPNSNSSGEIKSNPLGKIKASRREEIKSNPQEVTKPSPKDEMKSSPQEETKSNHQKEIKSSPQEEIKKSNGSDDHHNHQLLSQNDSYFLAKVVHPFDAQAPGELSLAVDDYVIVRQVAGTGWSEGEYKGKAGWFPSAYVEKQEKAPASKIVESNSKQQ

binding [1]: binds | binding [2]: binds | binding [3]: binds | binding [4]: binds
B1: SH3P2 (protein, UniProt Q8VWF1 1-368)
chain: MDAIRKQASRLREQVARQQQAVFKQFGGGGYGSGLADEAELNQHQKLEKLYISTRAAKHYQRDIVRGVEGYIVTGSKQVEIGTKLSEDSRKYGSENTCTNGNVLTRAALNYGRARAQMEKERGNMLKALGTQVAEPLRAMVLGAPLEDARHLAQRYDRMRQEAEAQATEVARRQAKARESQGNPDILMKLESAEAKLHDLKSNMTILGKEAASALASVEDQQQKLTLERLLSMVESERAYHQRVLQILDQLEGEMVSERQRIEAPSTPSSADSMPPPPSYEEANGVFASQMHDTSTDSMGYFLGEVLFPYHGVTDVELSLSTGEYVVVRKVTGSGWAEGECKGKAGWFPYGYIERRERVLASKVSEVF
